Out of some 580,000 compounds screened, about 6,100 (1.1%) were called active. The shares of active, inactive and inconclusive entries below differ from those in the screen. Calls follow the shape of the dose curve; as a rule, active = well fitted inhibition curve with a large enough effect; inconclusive = small, poorly fitted or top-dose-only effect, or another doubt; inactive = no such curve, though single readings can be large or run the other way. Potencies of inconclusive entries are doubtful fits and often do not repeat.
molecular target: Polyunsaturated fatty acid lipoxygenase ALOX12 (Homo sapiens) (UniProt P18054); experiment: Primary qHTS assay for inhibitors of human arachidonate 12S-lipoxygenase (ALOX12): Round 2; settings: purified 12hLO, xylenol orange hydroperoxide absorbance; series mostly up to 108 µM
Method in brief: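 Hydroperoxide product was detected by ferrous iron/xylenol orange as the 573 to 405 nm absorbance ratio. Arachidonic acid at 40 uM (final) was turned over for 30 min at room temperature by 150 nM human 12hLO, pH 7.0 Hepes buffer, after 15 min compound preincubation.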
Potency is read from the fitted curve at half-maximal effect.

Sequences of proteins named here, by UniProt entry; tags and fusion partners are left off. A change or cut given only in a name is not applied to a line headed by its entry.
UniProt P18054: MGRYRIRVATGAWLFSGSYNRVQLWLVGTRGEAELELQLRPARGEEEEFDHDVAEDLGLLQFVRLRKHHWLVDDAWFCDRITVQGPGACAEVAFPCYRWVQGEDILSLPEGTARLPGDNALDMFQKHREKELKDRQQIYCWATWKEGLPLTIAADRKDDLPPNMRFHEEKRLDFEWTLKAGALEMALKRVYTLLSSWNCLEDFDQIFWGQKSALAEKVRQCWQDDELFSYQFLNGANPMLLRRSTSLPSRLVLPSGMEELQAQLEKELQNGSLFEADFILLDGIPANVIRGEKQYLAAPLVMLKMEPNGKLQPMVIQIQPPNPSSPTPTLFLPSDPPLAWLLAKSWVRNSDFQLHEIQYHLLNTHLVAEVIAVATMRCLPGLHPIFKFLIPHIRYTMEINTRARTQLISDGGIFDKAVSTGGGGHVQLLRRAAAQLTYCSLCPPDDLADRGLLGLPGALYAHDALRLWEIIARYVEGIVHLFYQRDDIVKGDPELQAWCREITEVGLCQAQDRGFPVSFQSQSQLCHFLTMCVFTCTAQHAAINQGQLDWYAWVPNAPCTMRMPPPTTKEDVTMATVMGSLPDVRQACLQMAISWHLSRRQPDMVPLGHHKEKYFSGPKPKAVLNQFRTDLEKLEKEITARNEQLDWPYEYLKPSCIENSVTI

| SMILES | Potency |
| --- | --- |
| CCOc1ccc(NS(=O)(=O)c2cc(C(=O)NCCN3CCOCC3)ccc2C)cc1 | inconclusive: 56.2 µM [inhibitor, partial curve, poor fit] |
| CCOC(=O)c1[nH]c(C)c(/C=N/O)c1C | inconclusive: 112 µM [inhibitor, single point] |
| Cn1nnnc1Sc1ncnc2scc(-c3cccc(F)c3)c12 | inactive |
| CCOc1ccc(NC(=O)CN(C)Cc2cc(=O)n3c(-c4ccccc4)csc3n2)cc1OCC | inactive |
| Cc1ccc(N=Cc2sc(O)c3ccccc23)c(C)c1 | inconclusive: 44.7 µM [inhibitor, partial curve, poor fit] |
| CCOc1ccc2ccccc2c1/C=N/NC(=O)c1ccncc1 | inactive |
| NC(=O)C1CCN(C(=O)Cn2ccc3c(Cl)cccc32)CC1 | inactive |
| COc1cc(OC)cc(-c2nn(-c3ccc(C)cc3C)c(OC(C)=O)c2-c2ccc(NC(C)=O)cc2)c1 | inconclusive: 8.91 µM [inhibitor, full curve, poor fit] |
| CCn1nc(C(=O)Nc2c(F)c(F)c(F)c(F)c2F)c2ccccc2c1=O | inconclusive: 3.55 µM [inhibitor, full curve, poor fit] |
| CCCCn1c(-c2ccc(Br)cc2F)nc2c1c(=O)[nH]c(=O)n2CC(C)C | inconclusive: 50.1 µM [inhibitor, partial curve, poor fit] |
| O=C1NCCCCCCN[C@H]2C[C@H](c3nc(Cc4ccccc4)no3)C[C@@H]12 | inconclusive: 10 µM [inhibitor, full curve, poor fit] |
| Cc1n[nH]c(C)c1CCCCOc1ccccc1F | inactive |
| CC(C)c1ccccc1NC(=S)NCc1ccccc1F | inconclusive: 28.2 µM [inhibitor, partial curve] |
| Cc1ccc2nc(-c3ccc(C#N)cc3)c(Cc3cccc(Cl)c3)n2c1 | inactive |
| N#Cc1c(Cl)nsc1NC(=O)c1ccccc1 | inconclusive: 22.4 µM [inhibitor, partial curve, poor fit] |
| CCn1c2ccccc2c2cc(CN3CCOc4ccc(C(O)c5cccnc5)cc4C3)ccc21 (centres undefined) | inactive |
| O=C(CSc1nc2ccccc2c(=O)[nH]1)NCc1ccc(Cl)cc1 | inactive |
| COCCNCCCCOc1ccc(C)cc1[N+](=O)[O-] | inconclusive: 12.6 µM [inhibitor, full curve, poor fit] |
| CCn1c(-c2ccccc2)c[nH]c1=S | inconclusive: 31.6 µM [inhibitor, partial curve, poor fit] |
| CCOC(=O)c1cc(S(=O)(=O)NCc2ccc(C)cc2)[nH]n1 | inconclusive: 50.1 µM [inhibitor, partial curve] |
| Oc1ccc(-c2csc(NCc3ccco3)n2)cc1 | inconclusive: 35.5 µM [inhibitor, partial curve, poor fit] |
| O=S(=O)(Cc1cccc(F)c1)c1ccc2ccccc2c1 | inconclusive: 100 µM [inhibitor, single point] |

| SMILES | Potency |
| --- | --- |
| COc1ccc(C2=NN(C(=O)c3ccccc3)C(c3ccccc3)C2)c(O)c1 (centres undefined) | inactive |
| CC1(C(=O)NS(=O)(=O)c2ccccc2Cl)CCN1C(=O)C1(c2ccccc2)CC1 (centres undefined) | inconclusive: 112 µM [inhibitor, single point] |
| COc1ccc(N(C)S(=O)(=O)c2c(C)noc2C)c(OC)c1 | inconclusive: 5.01 µM [inhibitor, full curve, poor fit] |
| Cc1nn(CCc2n[nH]c(=S)n2C2CCCCC2)c(C)c1Br | active: 22.4 µM |
| O=S(=O)(c1ccc(Cl)cc1)c1nc(-c2ccco2)oc1SCc1ccc(F)cc1 | inconclusive: 56.2 µM [inhibitor, partial curve, poor fit] |
| CCOCC(=O)N1CCC(N2C(=O)C(O)C23CCCCC3)CC1 (centres undefined) | inactive |
| O=C(CCCc1ccccc1)NCc1ccco1 | inactive |
| Cc1ccc(-n2c(C3CCN(C(=O)c4cc(-c5ccc(F)cc5)n[nH]4)CC3)n[nH]c2=O)cc1 | inconclusive: 31.6 µM [inhibitor, full curve, poor fit] |
| CC(C)Cn1cnc2c1c(=O)n(CC(=O)N1CCc3ccccc31)c(=O)n2Cc1ccccc1 | inactive |
| O=C(NC1CC1)C(Sc1ccc(Cl)cc1)c1ccccc1 (centres undefined) | inactive |
| COc1ccc(-c2noc(CN3CCCc4c(C(=O)NC(C)C)cccc43)n2)cc1OC | inconclusive: 79.4 µM [inhibitor, partial curve, poor fit] |
| CC(C)n1nnnc1SCC(=O)N1N=C(c2cc3ccccc3o2)CC1c1ccco1 (centres undefined) | inconclusive: 35.5 µM [inhibitor, partial curve, poor fit] |
| CSc1ccc(CCNC(=O)CCn2c(=O)c3cccn3c3ccc(F)cc32)cc1 | inconclusive: 126 µM [inhibitor, partial curve, poor fit] |
| C[C@]1(Cn2ccnn2)[C@H](C(=O)O)N2C(=O)C[C@H]2S1(=O)=O | inconclusive: 2.03 µM [inhibitor, full curve] |
| O=C(Nc1ccc(-c2nc3ccccc3o2)cc1)C1CC1 | inactive |
| O=C(NCC(c1cccs1)N1CCOCC1)c1cc(S(=O)(=O)N2CCOCC2)ccc1Cl (centres undefined) | inconclusive: 112 µM [inhibitor, single point] |
| N#CC1=C2SCN(c3ccccc3)CN2C(=O)CC1c1c(Cl)cccc1Cl (centres undefined) | active: 3.16 µM |
| COc1ccc(-n2c(=O)c3ccccc3n(CC(=O)Nc3ccccc3OC)c2=O)cc1 | inconclusive: 50.1 µM [inhibitor, partial curve, poor fit] |
| CCOC(=O)c1sc(=S)n(-c2ccccc2)c1NC(C)=O | inconclusive: 70.8 µM [inhibitor, partial curve, poor fit] |
| CCN(CC)CCOC(=O)c1c(C)oc2ccc(OC)cc12 | inconclusive: 4.47 µM [inhibitor, full curve] |
| COc1ccc(N2CSC3=C(C#N)C(c4cc(OC)c(OC)cc4OC)CC(=O)N3C2)c(OC)c1 (centres undefined) | active: 28.2 µM |
| COc1cccc(/C(O)=C2/C(=O)C(=O)N(Cc3cccnc3)C2c2ccco2)c1 (centres undefined) | inconclusive: 35.5 µM [inhibitor, partial curve, poor fit] |

Some values from the entries so far.
CCN(CC)CCOC(=O)c1c(C)oc2ccc(OC)cc12 – Potency: inconclusive: 4.47 µM [inhibitor, full curve]
COc1cccc(/C(O)=C2/C(=O)C(=O)N(Cc3cccnc3)C2c2ccco2)c1 (centres undefined) – Potency: inconclusive: 35.5 µM [inhibitor, partial curve, poor fit]
CSc1ccc(CCNC(=O)CCn2c(=O)c3cccn3c3ccc(F)cc32)cc1 – Potency: inconclusive: 126 µM [inhibitor, partial curve, poor fit]
CC(C)Cn1cnc2c1c(=O)n(CC(=O)N1CCc3ccccc31)c(=O)n2Cc1ccccc1 – Potency: inactive
